The supplement of paper PMC10849652
The list shows a part of the results.

By UniProt entry, the sequences of proteins in these tests, tags left out. Where a name states a change or a piece, a line headed by the entry shows the natural chain unless it says otherwise.
UniProt Q9UK76: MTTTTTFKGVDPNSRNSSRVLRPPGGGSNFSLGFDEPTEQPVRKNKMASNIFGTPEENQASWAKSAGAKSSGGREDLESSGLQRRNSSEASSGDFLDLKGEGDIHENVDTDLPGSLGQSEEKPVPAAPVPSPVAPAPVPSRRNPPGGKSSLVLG
UniProt Q13572: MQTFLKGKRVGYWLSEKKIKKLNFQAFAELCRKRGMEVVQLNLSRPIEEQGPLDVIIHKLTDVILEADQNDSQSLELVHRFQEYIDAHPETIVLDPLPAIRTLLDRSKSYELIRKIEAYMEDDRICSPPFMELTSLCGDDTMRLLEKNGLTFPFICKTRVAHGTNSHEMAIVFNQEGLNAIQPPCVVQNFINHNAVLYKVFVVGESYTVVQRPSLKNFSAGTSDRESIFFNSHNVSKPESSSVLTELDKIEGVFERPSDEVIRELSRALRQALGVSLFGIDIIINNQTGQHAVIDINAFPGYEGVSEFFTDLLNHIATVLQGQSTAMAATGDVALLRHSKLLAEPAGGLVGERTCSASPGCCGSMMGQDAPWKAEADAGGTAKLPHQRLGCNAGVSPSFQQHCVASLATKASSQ
UniProt Q8TB96: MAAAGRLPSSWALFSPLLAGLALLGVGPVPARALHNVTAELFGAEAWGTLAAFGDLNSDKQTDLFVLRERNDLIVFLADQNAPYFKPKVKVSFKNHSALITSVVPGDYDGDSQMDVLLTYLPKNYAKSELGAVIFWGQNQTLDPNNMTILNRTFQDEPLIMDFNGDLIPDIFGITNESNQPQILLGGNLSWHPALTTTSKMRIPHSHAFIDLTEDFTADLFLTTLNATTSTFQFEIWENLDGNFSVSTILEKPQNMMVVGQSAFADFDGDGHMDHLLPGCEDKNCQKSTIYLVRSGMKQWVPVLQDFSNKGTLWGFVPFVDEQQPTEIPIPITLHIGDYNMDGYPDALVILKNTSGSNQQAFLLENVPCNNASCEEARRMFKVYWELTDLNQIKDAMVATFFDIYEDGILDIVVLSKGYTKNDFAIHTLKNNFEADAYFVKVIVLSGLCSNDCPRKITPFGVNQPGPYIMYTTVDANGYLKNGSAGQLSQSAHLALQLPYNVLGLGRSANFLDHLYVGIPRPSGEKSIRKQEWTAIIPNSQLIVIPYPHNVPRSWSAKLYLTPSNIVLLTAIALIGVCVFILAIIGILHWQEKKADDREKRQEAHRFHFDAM
UniProt Q8NC54: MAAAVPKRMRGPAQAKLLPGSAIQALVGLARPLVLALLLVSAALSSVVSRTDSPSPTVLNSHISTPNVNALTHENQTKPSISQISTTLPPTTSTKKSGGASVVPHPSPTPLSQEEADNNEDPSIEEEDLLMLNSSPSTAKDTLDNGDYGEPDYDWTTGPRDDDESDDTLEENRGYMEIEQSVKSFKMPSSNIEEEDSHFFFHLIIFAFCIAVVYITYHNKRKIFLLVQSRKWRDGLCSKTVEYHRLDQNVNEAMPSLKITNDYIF
UniProt P05556, whole entry, looked up: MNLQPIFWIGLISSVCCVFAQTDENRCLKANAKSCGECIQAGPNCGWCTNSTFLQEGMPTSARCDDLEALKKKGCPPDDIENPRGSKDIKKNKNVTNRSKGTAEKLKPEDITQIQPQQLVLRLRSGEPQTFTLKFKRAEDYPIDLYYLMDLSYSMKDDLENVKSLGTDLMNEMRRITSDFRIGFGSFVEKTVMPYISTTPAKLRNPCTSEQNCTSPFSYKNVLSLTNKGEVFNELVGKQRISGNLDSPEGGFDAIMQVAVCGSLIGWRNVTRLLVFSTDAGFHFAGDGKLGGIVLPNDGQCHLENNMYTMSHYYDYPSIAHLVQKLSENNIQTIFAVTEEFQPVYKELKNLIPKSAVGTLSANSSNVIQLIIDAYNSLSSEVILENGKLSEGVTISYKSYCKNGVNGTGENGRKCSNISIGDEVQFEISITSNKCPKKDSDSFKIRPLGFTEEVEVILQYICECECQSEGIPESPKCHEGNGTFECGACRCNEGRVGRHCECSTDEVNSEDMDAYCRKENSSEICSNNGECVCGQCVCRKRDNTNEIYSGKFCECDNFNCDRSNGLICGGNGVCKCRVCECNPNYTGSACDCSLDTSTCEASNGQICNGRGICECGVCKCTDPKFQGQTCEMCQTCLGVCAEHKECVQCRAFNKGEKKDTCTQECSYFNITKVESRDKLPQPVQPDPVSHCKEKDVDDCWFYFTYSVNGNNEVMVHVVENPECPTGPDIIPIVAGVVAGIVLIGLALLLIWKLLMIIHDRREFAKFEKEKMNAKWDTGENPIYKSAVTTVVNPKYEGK
UniProt Q6P9B9, whole entry, looked up: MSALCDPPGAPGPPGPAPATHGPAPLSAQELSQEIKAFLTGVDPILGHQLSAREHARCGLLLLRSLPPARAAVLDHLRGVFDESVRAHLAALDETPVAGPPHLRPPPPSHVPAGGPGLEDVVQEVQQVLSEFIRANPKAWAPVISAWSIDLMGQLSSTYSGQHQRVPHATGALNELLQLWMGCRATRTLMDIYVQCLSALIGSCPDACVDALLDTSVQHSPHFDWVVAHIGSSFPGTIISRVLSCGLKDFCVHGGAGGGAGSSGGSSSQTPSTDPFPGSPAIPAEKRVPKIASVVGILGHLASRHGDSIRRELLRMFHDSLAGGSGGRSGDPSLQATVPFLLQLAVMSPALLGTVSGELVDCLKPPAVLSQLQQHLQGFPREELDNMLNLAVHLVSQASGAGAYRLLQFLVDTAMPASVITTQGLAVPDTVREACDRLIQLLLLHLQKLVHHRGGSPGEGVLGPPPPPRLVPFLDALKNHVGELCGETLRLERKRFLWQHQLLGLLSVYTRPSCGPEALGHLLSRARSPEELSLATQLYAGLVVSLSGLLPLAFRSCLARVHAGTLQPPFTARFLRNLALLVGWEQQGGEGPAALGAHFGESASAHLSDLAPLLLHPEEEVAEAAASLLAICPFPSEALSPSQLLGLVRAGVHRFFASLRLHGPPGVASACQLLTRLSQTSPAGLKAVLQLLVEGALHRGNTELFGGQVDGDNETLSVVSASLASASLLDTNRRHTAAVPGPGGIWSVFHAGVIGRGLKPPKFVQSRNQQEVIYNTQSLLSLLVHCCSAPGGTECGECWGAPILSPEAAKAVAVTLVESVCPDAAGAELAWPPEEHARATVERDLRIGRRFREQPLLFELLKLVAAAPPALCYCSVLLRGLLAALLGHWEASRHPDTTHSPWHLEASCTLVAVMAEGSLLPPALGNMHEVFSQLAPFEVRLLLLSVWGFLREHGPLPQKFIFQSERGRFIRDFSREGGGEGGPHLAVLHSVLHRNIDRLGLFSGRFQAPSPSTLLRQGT
UniProt P33947: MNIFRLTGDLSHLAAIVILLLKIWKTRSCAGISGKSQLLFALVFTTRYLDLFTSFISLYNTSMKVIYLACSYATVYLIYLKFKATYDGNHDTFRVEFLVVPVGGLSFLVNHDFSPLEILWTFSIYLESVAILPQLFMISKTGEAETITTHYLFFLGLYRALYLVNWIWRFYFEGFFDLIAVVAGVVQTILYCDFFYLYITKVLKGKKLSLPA
UniProt Q9NPH2: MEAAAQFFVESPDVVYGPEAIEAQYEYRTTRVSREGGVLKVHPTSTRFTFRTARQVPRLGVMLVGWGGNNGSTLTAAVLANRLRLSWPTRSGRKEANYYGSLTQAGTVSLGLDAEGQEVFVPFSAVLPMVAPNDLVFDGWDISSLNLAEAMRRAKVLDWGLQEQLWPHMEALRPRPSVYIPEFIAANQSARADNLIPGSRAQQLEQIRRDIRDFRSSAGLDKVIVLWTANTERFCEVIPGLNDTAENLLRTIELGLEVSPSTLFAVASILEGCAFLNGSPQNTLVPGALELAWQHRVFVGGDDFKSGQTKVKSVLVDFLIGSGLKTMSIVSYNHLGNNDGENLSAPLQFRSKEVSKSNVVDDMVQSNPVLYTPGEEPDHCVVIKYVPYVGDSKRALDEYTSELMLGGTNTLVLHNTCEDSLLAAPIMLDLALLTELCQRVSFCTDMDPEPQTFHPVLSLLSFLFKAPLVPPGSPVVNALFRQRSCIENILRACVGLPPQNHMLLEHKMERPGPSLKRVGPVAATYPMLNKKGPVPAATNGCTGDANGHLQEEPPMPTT
UniProt Q8IY47: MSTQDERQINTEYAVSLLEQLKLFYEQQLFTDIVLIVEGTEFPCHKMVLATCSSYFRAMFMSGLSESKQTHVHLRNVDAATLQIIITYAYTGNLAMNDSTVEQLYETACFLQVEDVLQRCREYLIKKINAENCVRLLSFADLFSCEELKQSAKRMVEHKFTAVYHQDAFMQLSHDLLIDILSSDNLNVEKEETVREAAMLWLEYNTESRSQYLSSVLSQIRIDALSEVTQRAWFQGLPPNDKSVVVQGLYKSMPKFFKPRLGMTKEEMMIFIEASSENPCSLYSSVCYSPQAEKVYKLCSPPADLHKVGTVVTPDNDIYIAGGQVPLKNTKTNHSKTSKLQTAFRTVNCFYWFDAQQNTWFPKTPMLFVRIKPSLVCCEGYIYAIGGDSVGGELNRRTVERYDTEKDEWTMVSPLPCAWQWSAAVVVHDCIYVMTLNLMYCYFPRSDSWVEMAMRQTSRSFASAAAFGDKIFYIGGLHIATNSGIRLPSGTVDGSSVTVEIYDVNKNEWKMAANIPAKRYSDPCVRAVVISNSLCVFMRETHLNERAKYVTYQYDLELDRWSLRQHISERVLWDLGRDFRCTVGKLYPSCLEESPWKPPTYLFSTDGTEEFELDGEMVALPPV
UniProt P51617, whole entry, looked up: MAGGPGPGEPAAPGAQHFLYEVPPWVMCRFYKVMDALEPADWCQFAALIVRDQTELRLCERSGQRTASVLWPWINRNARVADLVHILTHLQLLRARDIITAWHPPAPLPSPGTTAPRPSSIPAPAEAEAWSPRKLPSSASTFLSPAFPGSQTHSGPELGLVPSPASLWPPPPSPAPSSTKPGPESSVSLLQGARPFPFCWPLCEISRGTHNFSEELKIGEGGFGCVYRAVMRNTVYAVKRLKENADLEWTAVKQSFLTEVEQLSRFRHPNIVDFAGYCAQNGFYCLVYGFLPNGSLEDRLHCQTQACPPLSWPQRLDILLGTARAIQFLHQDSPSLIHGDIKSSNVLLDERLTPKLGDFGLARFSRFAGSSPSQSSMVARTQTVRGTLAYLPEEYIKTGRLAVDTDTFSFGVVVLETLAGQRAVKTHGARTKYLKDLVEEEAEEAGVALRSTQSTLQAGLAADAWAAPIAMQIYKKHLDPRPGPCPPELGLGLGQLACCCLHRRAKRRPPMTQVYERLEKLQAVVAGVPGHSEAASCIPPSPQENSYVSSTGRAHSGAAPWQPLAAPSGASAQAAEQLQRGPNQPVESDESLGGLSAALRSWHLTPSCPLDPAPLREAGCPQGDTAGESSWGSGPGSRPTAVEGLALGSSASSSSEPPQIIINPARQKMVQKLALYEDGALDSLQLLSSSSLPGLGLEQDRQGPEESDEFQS
UniProt Q8IU81: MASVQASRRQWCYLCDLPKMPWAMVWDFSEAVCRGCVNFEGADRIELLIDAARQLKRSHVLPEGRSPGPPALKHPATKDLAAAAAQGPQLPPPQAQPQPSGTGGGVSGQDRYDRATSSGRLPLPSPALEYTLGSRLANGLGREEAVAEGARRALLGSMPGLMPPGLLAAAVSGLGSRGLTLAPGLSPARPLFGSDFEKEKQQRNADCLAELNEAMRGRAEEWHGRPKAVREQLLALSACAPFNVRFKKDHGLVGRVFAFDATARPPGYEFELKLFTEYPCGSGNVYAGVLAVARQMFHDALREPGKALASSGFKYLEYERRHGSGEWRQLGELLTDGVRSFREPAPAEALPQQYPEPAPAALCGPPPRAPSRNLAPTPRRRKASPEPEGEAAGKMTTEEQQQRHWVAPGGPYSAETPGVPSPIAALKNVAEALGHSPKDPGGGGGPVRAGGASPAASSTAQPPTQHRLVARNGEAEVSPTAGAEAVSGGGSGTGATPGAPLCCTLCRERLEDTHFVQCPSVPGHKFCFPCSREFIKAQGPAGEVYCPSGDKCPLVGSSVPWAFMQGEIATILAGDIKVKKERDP
UniProt O95251, whole entry, looked up: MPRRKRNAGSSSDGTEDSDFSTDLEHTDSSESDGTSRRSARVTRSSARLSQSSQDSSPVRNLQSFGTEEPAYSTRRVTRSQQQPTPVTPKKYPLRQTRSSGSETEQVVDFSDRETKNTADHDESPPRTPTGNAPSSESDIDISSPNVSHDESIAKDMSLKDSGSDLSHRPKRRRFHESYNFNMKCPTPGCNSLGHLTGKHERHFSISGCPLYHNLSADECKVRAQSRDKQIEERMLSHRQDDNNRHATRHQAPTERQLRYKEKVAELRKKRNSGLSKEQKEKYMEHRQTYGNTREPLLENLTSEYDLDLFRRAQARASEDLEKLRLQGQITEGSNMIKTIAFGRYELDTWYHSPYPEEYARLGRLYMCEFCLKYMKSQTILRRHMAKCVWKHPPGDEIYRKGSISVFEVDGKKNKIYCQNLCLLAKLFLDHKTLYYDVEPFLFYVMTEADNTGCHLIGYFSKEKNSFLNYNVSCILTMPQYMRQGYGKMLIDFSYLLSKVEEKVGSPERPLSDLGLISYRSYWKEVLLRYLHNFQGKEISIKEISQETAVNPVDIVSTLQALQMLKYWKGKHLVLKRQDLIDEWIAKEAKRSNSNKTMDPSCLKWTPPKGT

Each target was assayed with CN1CCN(c2nc(C3=C(c4c[nH]c5ccccc45)C(=O)NC3=O)c3ccccc3n2)CC1 [sotrastaurin] (assay: log2 fold change, soluble protein after heating vs DMSO (PISA); higher = thermal stabilisation; K562 lysate, 10 uM; active = over 0.2 and 3.5 SD of the protein, either way, in both replicates (recomputed)).
How it was run: (§1)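 Quantification was by TMTpro 16plex LC-MS/MS with equalised channel sums, applied to the supernatant after 21,000xg for 90 min. Samples were crude K562 extract at 1 mg/mL protein in PBS pH 7.4 with 1 mM MgCl2, treated with 10 μM compound for 30 min, heated for 3 min across 48°C-58°C, pooled and brought to 0.5% NP-40 at 4°C. Values are log-two fold changes in thermal stability relative to solvent controls, from duplicates.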

| Target | log2 fold change |
| --- | --- |
| JPT1 (UniProt Q9UK76) | inactive: -0.015 |
| KCTD5 (UniProt Q9NXV2) | inactive: -0.045 |
| INTS7 (UniProt Q9NVH2) | inactive: -0.057 |
| IRF3 (UniProt Q14653) | inactive: 0 |
| ITPK1 (UniProt Q13572) | inactive: -0.016 |
| KAT8 (UniProt Q9H7Z6) | inactive: 0.071 |
| IPO5 isoform 3 (UniProt O00410) | inactive: -0.015 |
| ISCA1 isoform 2 (UniProt Q9BUE6) | inactive: 0.021 |
| JPT2 isoform 3 (UniProt Q9H910) | inactive: -0.001 |
| KCTD20 (UniProt Q7Z5Y7) | inactive: 0.025 |
| ITFG1 (UniProt Q8TB96) | inactive: -0.006 |
| KANSL3 (UniProt Q9P2N6) | inactive: 0.125 |
| KCT2 (UniProt Q8NC54) | inactive: 0.038 |
| JUND (UniProt P17535) | inactive: -0.013 |
| ISY1 isoform 1 (UniProt Q9ULR0) | inactive: 0.032 |
| ITGB1 (UniProt P05556) | inactive: 0.006 |

The targets below were run with CN1CC[C@H](c2c(O)cc(O)c3c(=O)cc(-c4ccccc4Cl)oc23)[C@H](O)C1 [alvocidib] in the same assay as above.
How it was run: as §1

| Target | log2 fold change |
| --- | --- |
| ISOC2 (UniProt Q96AB3) | inactive: 0.004 |
| INTS5 (UniProt Q6P9B9) | inactive: 0.038 |
| ITPKA (UniProt P23677) | inactive: -0.001 |
| IPO11 isoform 2 (UniProt Q9UI26) | inactive: 0.038 |
| JAGN1 (UniProt Q8N5M9) | inactive: -0.018 |
| KDM1B (UniProt Q8NB78) | inactive: -0.066 |
| KDELR2 (UniProt P33947) | inactive: -0.071 |
| INTS9 (UniProt Q9NV88) | inactive: -0.059 |
| KCTD10 (UniProt Q9H3F6) | inactive: 0.065 |
| ISYNA1 (UniProt Q9NPH2) | inactive: -0.039 |
| ISCU (UniProt Q9H1K1) | inactive: 0.019 |
| IQGAP1 (UniProt P46940) | inactive: 0.012 |
| INTS14 (UniProt Q96SY0) | inactive: -0.001 |
| KDM1A (UniProt O60341) | inactive: -0.034 |
| KBTBD2 (UniProt Q8IY47) | inactive: -0.073 |
| IQSEC1 (UniProt Q6DN90) | inactive: 0.005 |
| IRAK1 (UniProt P51617) | inactive: -0.104 |
| ITGAV (UniProt P06756) | inactive: -0.017 |
| KCTD9 (UniProt Q7L273) | inactive: 0.011 |
| IRF2BPL (UniProt Q9H1B7) | inactive: -0.076 |

| Target | log2 fold change |
| --- | --- |
| IRF2BP1 (UniProt Q8IU81) | inactive: -0.029 |
| ISOC1 (UniProt Q96CN7) | inactive: 0.005 |
| KAT7 (UniProt O95251) | inactive: -0.048 |
| JPT1 (UniProt Q9UK76) | inactive: -0.021 |
| KCTD5 (UniProt Q9NXV2) | inactive: -0.073 |
| INTS7 (UniProt Q9NVH2) | inactive: -0.012 |
| IRF3 (UniProt Q14653) | inactive: 0 |
| ITPK1 (UniProt Q13572) | inactive: 0.053 |
| KAT8 (UniProt Q9H7Z6) | inactive: 0.063 |
| IPO5 isoform 3 (UniProt O00410) | inactive: 0.014 |
| ISCA1 isoform 2 (UniProt Q9BUE6) | inactive: 0.103 |
| JPT2 isoform 3 (UniProt Q9H910) | inactive: -0.026 |
| KCTD20 (UniProt Q7Z5Y7) | inactive: 0.05 |
| ITFG1 (UniProt Q8TB96) | inactive: -0.054 |
| KANSL3 (UniProt Q9P2N6) | inactive: -0.146 |
| KCT2 (UniProt Q8NC54) | inactive: -0.137 |
| JUND (UniProt P17535) | inactive: -0.053 |
| ISY1 isoform 1 (UniProt Q9ULR0) | inactive: -0.05 |
| ITGB1 (UniProt P05556) | inactive: -0.007 |
